Results: paper PMC7819943, “Rice protein-binding microarrays: a tool to detect cis-acting elements near promoter regions in rice”
Some of the results follow.

The chains behind the UniProt entries cited, without tags or fusion partners.
UniProt Q0JBA9, entry or part of it: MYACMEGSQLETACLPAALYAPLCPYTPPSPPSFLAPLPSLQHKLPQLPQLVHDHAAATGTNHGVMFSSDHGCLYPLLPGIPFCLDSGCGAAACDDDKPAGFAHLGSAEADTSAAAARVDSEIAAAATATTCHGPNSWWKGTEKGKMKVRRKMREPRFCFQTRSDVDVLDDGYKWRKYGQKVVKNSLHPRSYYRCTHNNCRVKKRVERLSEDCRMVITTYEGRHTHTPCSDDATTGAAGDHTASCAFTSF

Molecular target: OsWRKY34 (Oryza sativa, UniProt Q0JBA9 1-250)
Test: protein-binding microarray (RPBM); PBS, 2% BSA, 51.3 ng/ul salmon testes DNA, 50 uM zinc acetate, 200 nM TF, 25 C, 1 h; high values mean tight binding
Details: protein: recombinant; tags: N-terminal polyhistidine and DsRed monomer fusion (pET32a); label: CyDye5-dUTP incorporated in the synthesized complementary strand; 3' TTTTT single-stranded linker to array surface; dsDNA, one strand shown
Method in brief: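 An Axon 4000B scanner gave the binding signal as per-feature fluorescence intensity in arbitrary units. This followed washing of a custom Agilent array that had been incubated for 1 h at 25 °C with 200 nM protein in PBS, 2% BSA, salmon testes DNA and 50 µM zinc acetate. The proteins were transcription factors fused at the N-terminus to polyhistidine and DsRed, expressed in E. coli BL21-CodonPlus and purified on Ni–NTA.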

First: CACTAATTCCATTTCGCCGTTACGCCAAACTTGGACAAACCGGAGTCACCTAGTGCAG
Second: ATATGGCAAGGTTGGATCAGTCATTTCGGCATGGCCATTTCGGAGTCACCTAGTGCAG
The binding signal of the first is higher: 9900 fluorescence intensity (a.u.) for the first, 8080 fluorescence intensity (a.u.) for the second.

Going from “CTCTCTCTCTCTCTATCCATCATCTCCTCCTCTGCTTTTTCGGAGTCACCTAGTGCAG” to “ACCCCGCTCGCCGCGGCCGACCCGCTCGTCCACGACCTCCCGGAGTCACCTAGTGCAG”, the binding signal falls from 10200 fluorescence intensity (a.u.) to 8260 fluorescence intensity (a.u.).

Compared with “GGTTTTGTGTGTTTTATGTTACGGAAGTACGGAACCAAGACGGAGTCACCTAGTGCAG”, “GTTAACCATATTTTTTTACTGTTTAAACATTTTTATTTTTCGGAGTCACCTAGTGCAG” is higher in binding signal: 9300 fluorescence intensity (a.u.) for the first, 10300 fluorescence intensity (a.u.) for the second.

Going from “CAGTGCTAATCTGCGCTTCTCTTATTCTCATGTGGTGTGACGGAGTCACCTAGTGCAG” to “CAGGGTTTGGATGTGGATATGGTTTCTTCAAGGGTATTTTCGGAGTCACCTAGTGCAG”, the binding signal rises from 8880 fluorescence intensity (a.u.) to 16400 fluorescence intensity (a.u.).

First: GCAATCGTCTAAAATATGCATGTACATATGATGTCCTAGTCGGAGTCACCTAGTGCAG
Second: CAACTATGGGTTTTTCCTACTGCCGATTATTGAGCTTATCCGGAGTCACCTAGTGCAG
The binding signal of the first is lower: 8660 fluorescence intensity (a.u.) for the first, 8900 fluorescence intensity (a.u.) for the second.

First: CTACTCCATCTGCTGTTGCTGTTGCTGTTGCCCATCGTCTCGGAGTCACCTAGTGCAG
Second: CGTTATTTGTATTTTAGCCAGTTTTTAAGTTCGTTCGCTTCGGAGTCACCTAGTGCAG
The binding signal of the first is higher: 14000 fluorescence intensity (a.u.) for the first, 8020 fluorescence intensity (a.u.) for the second.

Compared with “GGTCCGGTCGGCCGTTAATTAATATACTTATACGTACTCCCGGAGTCACCTAGTGCAG”, “AACACCCCAACAAGTTTGTTTGCTTGCTCGCACGCTTGCTCGGAGTCACCTAGTGCAG” is higher in binding signal: 8260 fluorescence intensity (a.u.) for the first, 8790 fluorescence intensity (a.u.) for the second.

Going from “CCACTACCAGTCCATTTCCACTCTCGGCGTCGGGGCCCCACGGAGTCACCTAGTGCAG” to “AACGTCTTCACCTGTTGCAATGCACGAGCATTTTTTTCTACGGAGTCACCTAGTGCAG”, the binding signal rises from 9430 fluorescence intensity (a.u.) to 11800 fluorescence intensity (a.u.).

First: GCACCTGGGACCGCGTGCGTGCGGGCGGGCGGGCGGGCGGCGGAGTCACCTAGTGCAG
Second: ATGTTCTTATTATTCTAATTAATTTTGATTTTCCTACATACGGAGTCACCTAGTGCAG
The binding signal of the first is higher: 13800 fluorescence intensity (a.u.) for the first, 8540 fluorescence intensity (a.u.) for the second.

Going from “TCCGCTTCTGCTATCTCTCGTCACTCTTCAGTCTTCACCTCGGAGTCACCTAGTGCAG” to “GGTTGTTTGCATTAGTCTATCTAGGTTGGTATGAGATCTTCGGAGTCACCTAGTGCAG”, the binding signal rises from 8050 fluorescence intensity (a.u.) to 9120 fluorescence intensity (a.u.).

Compared with “AGTATTTATTTAGGGGTTTCTTCGTCACTTTTTTGTAAAACGGAGTCACCTAGTGCAG”, “ACCATATATTTCGACTACTCTCTTTATAATCTATTCTTATCGGAGTCACCTAGTGCAG” is higher in binding signal: 10400 fluorescence intensity (a.u.) for the first, 12100 fluorescence intensity (a.u.) for the second.

First: CTCCGTAAGCTCCAGCCCACTGCCACCGCTGCTCCAGCTACGGAGTCACCTAGTGCAG
Second: CACCACACAGCCTTTTTAGTGCCCTGATTATATAATCTTCCGGAGTCACCTAGTGCAG
The binding signal of the first is lower: 8250 fluorescence intensity (a.u.) for the first, 11700 fluorescence intensity (a.u.) for the second.

Going from “CGAAATTCATTCAGCAGAACAGTCAATACCGTTTGTTTCCCGGAGTCACCTAGTGCAG” to “CTCCACGCCATGCTCTGCTTTTCTTCAGCTTTTTCTTGGGCGGAGTCACCTAGTGCAG”, the binding signal falls from 9330 fluorescence intensity (a.u.) to 8320 fluorescence intensity (a.u.).

First: GGCCGAAACTTCTTTCTTTCTTCCGTTTGGCCCAATCCTTCGGAGTCACCTAGTGCAG
Second: AAAATCATGCTTTTCTCTCTACTTTTCTTTTTCTTTTTTCCGGAGTCACCTAGTGCAG
The binding signal of the first is higher: 9290 fluorescence intensity (a.u.) for the first, 9200 fluorescence intensity (a.u.) for the second.

Compared with “GTTGTGTTTAGCCGCGGTAGTTTTCTAAGCTTCAGTTTTCCGGAGTCACCTAGTGCAG”, “GTCATAATTTTAAAAGTTTAGGGGTTGATTCGGTCCAAATCGGAGTCACCTAGTGCAG” is lower in binding signal: 10800 fluorescence intensity (a.u.) for the first, 8420 fluorescence intensity (a.u.) for the second.

First: TGTTTTGACGGGCCCGGAATTGCTTTTGCTGCCTAGGCACCGGAGTCACCTAGTGCAG
Second: ATTCCATCGTATATTACCCATGAACATGCATAGGTGAATCCGGAGTCACCTAGTGCAG
The binding signal of the first is higher: 9370 fluorescence intensity (a.u.) for the first, 8780 fluorescence intensity (a.u.) for the second.

Going from “AAGACTTTCACCTTGGAGTCCTATCCAACCATATGCCACCCGGAGTCACCTAGTGCAG” to “TTGAGATGTGTGCTCAGACAGTCACAACACCACGTTGACCCGGAGTCACCTAGTGCAG”, the binding signal falls from 10000 fluorescence intensity (a.u.) to 9890 fluorescence intensity (a.u.).

First: GCGGGTGTGGCATTGTGGGTAATCTCGGCCGTTCAAATATCGGAGTCACCTAGTGCAG
Second: CCGCGTTGTGTTTCGCTTTTTGGCAGTTCGATCGATCTTACGGAGTCACCTAGTGCAG
The binding signal of the first is higher: 17300 fluorescence intensity (a.u.) for the first, 8240 fluorescence intensity (a.u.) for the second.

Compared with “AGTTCGTGTGCTTCTCTCATTTGTTCCTTGATATATTTGCCGGAGTCACCTAGTGCAG”, “TTTGTCATATCAAAATGCTTTTGACTTTTGATTATTCTTCCGGAGTCACCTAGTGCAG” is lower in binding signal: 10300 fluorescence intensity (a.u.) for the first, 9800 fluorescence intensity (a.u.) for the second.

Going from “GTTTTTTCTTGCCAAGTATGGTACCATGTTCTGTCTCCTCCGGAGTCACCTAGTGCAG” to “GTGTTGGTCTTTGATGTAGTCGTACCACTGCTGTAAAAAACGGAGTCACCTAGTGCAG”, the binding signal falls from 8760 fluorescence intensity (a.u.) to 8300 fluorescence intensity (a.u.).

Compared with “CTGCTAACCACAATTCCCTCGTACCATCACATGGCAAACACGGAGTCACCTAGTGCAG”, “CGCGTGGACCCCACCTGCAGCCACCCACCCTCCACCTTCCCGGAGTCACCTAGTGCAG” is lower in binding signal: 8450 fluorescence intensity (a.u.) for the first, 8080 fluorescence intensity (a.u.) for the second.
